In patent US20040175770A1:
These are yes or no findings as the source states them, for the method shown. For some of these results: In cells and extracts the contact can be indirect. Some results given as binding are weak or reduced against the parent protein; the word gives no strength. For some of these results: Tags and fused reporters may be left off the sequences shown.

Sequences of proteins named here, by UniProt entry; tags and fusion partners are left off. A change or cut given only in a name is not applied to a line headed by its entry. Residues count along the entry.
UniProt P25054: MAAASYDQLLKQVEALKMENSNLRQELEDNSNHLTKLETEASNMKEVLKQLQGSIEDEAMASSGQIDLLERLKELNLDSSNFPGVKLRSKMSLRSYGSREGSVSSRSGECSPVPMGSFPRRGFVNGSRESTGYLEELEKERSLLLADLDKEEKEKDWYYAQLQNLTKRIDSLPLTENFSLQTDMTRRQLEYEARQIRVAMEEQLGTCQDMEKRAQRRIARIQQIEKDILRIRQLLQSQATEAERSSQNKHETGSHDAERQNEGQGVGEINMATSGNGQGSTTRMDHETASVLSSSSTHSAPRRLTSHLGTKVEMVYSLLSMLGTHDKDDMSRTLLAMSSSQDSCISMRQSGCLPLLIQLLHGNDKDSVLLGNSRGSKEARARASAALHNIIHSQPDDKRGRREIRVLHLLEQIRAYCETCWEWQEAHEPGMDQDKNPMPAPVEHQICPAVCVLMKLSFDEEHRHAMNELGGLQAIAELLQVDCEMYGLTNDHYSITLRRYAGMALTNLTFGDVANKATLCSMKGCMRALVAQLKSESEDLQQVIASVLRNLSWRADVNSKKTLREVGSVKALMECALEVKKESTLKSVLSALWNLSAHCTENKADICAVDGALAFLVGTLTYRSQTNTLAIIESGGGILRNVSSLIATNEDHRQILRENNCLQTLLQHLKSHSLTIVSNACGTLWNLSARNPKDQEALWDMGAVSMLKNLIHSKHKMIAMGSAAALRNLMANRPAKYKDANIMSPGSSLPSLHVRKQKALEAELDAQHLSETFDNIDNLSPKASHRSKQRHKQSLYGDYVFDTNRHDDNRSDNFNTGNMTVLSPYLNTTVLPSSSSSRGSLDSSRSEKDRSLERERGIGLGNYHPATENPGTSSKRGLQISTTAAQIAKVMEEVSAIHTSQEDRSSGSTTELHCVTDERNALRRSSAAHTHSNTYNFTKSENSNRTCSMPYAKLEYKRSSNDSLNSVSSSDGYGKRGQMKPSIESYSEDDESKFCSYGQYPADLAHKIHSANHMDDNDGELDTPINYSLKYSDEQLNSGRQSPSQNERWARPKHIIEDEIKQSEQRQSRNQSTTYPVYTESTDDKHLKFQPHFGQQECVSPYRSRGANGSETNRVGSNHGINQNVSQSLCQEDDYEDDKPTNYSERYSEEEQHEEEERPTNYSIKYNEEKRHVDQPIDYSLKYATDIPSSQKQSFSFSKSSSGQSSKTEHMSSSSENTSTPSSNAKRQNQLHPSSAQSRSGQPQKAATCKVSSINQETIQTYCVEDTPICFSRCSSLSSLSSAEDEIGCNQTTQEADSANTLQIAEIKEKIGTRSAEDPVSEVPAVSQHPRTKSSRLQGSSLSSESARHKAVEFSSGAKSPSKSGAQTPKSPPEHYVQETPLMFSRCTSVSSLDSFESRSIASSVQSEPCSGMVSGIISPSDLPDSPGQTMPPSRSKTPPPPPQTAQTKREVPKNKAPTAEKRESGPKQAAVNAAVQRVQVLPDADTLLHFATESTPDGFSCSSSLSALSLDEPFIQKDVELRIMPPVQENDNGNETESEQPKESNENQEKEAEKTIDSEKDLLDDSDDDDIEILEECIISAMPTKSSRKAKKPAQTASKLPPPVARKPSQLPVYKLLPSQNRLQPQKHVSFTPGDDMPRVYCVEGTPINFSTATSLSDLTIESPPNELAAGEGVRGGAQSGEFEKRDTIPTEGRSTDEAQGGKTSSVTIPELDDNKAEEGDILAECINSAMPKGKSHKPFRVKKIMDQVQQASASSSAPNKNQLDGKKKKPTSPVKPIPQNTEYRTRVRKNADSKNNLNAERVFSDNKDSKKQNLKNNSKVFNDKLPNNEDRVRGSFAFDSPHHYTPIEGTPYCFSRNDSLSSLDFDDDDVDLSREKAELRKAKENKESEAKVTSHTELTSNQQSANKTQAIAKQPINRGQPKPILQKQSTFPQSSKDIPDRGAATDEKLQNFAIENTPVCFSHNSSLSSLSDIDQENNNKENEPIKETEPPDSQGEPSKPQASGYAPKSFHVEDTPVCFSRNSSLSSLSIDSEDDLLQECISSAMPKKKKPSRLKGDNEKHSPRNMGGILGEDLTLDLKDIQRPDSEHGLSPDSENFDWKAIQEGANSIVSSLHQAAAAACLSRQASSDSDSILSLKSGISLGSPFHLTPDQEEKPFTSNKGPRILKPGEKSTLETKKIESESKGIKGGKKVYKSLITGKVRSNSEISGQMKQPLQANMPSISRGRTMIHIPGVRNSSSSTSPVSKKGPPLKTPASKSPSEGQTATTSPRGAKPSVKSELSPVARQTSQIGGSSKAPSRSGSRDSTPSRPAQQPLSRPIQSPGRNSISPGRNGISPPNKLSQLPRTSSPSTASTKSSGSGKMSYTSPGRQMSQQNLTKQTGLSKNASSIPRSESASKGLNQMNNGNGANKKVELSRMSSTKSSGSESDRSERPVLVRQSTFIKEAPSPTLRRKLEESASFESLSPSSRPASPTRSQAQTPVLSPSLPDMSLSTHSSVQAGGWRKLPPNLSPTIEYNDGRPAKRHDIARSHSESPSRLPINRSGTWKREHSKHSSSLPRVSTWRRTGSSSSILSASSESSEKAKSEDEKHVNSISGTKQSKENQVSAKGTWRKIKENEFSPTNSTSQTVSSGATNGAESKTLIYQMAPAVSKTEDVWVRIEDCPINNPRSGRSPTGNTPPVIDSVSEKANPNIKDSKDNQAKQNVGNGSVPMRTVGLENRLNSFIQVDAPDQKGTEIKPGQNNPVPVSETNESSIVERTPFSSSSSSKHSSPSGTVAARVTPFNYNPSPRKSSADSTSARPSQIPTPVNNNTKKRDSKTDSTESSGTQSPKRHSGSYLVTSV
endogenous pAPC (APC protein, 2843 amino acids): residues 2-2843 of P25054
carboxy-terminal 155 amino acids of pAPC: residues 2689-2843 of P25054

Experiments:
[1] = molecular target: carboxy-terminal 155 amino acids of pAPC (UniProt P25054); test: yeast two-hybrid cDNA library screening
[2] = molecular target: GST-pAPC fusion protein (pAPC a.a. 2543-2843) [GST: P08515]; test: GST pull-down, 35S-labeled in vitro translated protein
[3] = molecular target: GST-pAPC fusion protein (pAPC a.a. 2688-2843) [GST: P08515]; test: as above
[4] = molecular target: GST-pAPC fusion protein (pAPC a.a. 2543-2843) [GST: P08515]; test: GST pull-down, 35S-labeled in vitro translated protein (legend of FIG. 1D)
[5] = molecular target: GST-pAPC fusion protein (pAPC a.a. 2688-2843) [GST: P08515]; test: as above
[6] = molecular target: endogenous pAPC (APC protein, 2843 amino acids) (UniProt P25054); test: co-immunoprecipitation from 293T whole cell extract, anti-Myc immunoblot (legend of FIG. 1E)
[7] = molecular target: endogenous pAPC (APC protein, 2843 amino acids) (UniProt P25054); test: co-immunoprecipitation from 293T whole cell extract with anti-pAPC Ab-5, anti-Myc immunoblot

Measured: binding

B1: Siah-1 (full-length, a.a. 1-298) (protein, human, UniProt Q8IUQ4 1-282, looked up)
chain: MSRQTATALPTGTSKCPPSQRVPALTGTTASNNDLASLFECPVCFDYVLPPILQCQSGHLVCSNCRPKLTCCPTCRGPLGSIRNLAMEKVANSVLFPCKYASSGCEITLPHTEKADHEELCEFRPYSCPCPGASCKWQGSLDAVMPHLMHQHKSITTLQGEDIVFLATDINLPGAVDWVMMQSCFGFHFMLVLEKQEKYDGHQQFFAIVQLIGTRKQAENFAYRLELNGHRRRLTWEATPRSIHEGIATAIMNSDCLVFDTSIAQLFAENGNLGINVTISMC
modifications: 35S-labeled (in vitro translated) in the GST pull-down
not listed: [6] | [7]
binds: all other assays above

B2: Myc epitope-tagged Siah-1 (protein, human, UniProt Q8IUQ4 1-282, looked up, not shown: small tags and cut ends)
chain: B1 chain
binds: [6] | [7]
